# Assay results: PMC6239283
# These are yes or no findings as the source states them, for the method shown. For some of these results: Binding seen in cells or lysates may run through a third protein. For some of these results: Binding calls can cover weak binding; strength is not graded here. Where a sequence is shown, tags or fusion partners need not be part of it.
# Legend:
# [1] = biological target: T1, OsTGA3 (BiFC split-YFP fusion) (rice (Oryza sativa)) (UniProt Q6IVC3); experiment: split reporter; BiFC in rice protoplasts transfected using PEG; OsTGAs fused to cYFP (and nYFP for dimer tests), NHs fused to nYFP; reconstituted YFP seen by confocal microscopy
# T1 sequence: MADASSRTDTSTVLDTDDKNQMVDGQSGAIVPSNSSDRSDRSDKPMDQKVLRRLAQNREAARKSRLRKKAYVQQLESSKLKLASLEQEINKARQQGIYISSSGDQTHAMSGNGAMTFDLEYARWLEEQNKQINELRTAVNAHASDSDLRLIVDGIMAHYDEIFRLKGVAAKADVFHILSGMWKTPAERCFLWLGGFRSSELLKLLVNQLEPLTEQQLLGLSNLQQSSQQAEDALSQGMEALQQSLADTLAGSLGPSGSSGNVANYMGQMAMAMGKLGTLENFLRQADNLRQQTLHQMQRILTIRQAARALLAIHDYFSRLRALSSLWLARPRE
# [2] = biological target: T2, OsTGA2 (yeast two-hybrid fusion) (rice (Oryza sativa)) (UniProt Q6IVC2); experiment: two-hybrid; … Y2H system (Clontech); OsTGAs in pGBKT7 (bait), NHs or OsTGAs in pGADT7 (prey); co-transformed into yeast; growth on SD without leucine, tryptophan and histidine with 1 to 10 mM 3-AT; images on the third day
# T2 sequence: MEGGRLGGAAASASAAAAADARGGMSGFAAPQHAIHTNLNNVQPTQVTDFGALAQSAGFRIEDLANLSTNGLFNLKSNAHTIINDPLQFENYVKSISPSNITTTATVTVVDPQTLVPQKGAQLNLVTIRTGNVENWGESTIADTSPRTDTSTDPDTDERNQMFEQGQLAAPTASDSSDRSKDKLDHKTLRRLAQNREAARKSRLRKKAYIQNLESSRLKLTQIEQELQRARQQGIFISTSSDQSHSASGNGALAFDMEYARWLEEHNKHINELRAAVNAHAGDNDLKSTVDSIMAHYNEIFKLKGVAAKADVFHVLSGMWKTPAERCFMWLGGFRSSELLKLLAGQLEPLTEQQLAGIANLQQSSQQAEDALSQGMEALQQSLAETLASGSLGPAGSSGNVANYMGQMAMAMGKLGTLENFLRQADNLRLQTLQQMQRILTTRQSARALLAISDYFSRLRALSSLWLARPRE
# [3] = biological target: T3, OsTGA3 (yeast two-hybrid fusion) (rice (Oryza sativa)) (UniProt Q6IVC3); experiment: as above
# T3 sequence: T1 sequence
# [4] = biological target: T4, OsTGA5 (yeast two-hybrid fusion) (rice (Oryza sativa)) (UniProt Q0JNL3); experiment: as above
# T4 sequence: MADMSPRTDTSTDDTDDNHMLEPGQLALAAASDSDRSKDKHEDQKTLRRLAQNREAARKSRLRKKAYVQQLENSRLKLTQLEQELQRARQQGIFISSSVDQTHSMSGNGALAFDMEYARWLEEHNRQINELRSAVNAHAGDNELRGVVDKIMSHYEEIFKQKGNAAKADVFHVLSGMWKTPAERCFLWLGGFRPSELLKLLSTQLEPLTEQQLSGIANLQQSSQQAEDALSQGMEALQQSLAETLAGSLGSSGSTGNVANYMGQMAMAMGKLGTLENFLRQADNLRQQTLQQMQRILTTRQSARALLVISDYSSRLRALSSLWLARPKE
binding [1],binding [2],binding [3],binding [4],Substance
binds weakly,,,,"OsNH5, rice NPR1 homolog 5 (BiFC nYFP fusion)"
,no binding,no binding,no binding,"OsNH5, rice NPR1 homolog 5 (yeast two-hybrid fusion)"
